# From the supplement of paper PMC10849652
# The chains behind the UniProt entries cited, without tags or fusion partners. Where a name states a change or a piece, a line headed by the entry shows the natural chain unless it says otherwise.
# UniProt Q8N3C0, whole entry, looked up: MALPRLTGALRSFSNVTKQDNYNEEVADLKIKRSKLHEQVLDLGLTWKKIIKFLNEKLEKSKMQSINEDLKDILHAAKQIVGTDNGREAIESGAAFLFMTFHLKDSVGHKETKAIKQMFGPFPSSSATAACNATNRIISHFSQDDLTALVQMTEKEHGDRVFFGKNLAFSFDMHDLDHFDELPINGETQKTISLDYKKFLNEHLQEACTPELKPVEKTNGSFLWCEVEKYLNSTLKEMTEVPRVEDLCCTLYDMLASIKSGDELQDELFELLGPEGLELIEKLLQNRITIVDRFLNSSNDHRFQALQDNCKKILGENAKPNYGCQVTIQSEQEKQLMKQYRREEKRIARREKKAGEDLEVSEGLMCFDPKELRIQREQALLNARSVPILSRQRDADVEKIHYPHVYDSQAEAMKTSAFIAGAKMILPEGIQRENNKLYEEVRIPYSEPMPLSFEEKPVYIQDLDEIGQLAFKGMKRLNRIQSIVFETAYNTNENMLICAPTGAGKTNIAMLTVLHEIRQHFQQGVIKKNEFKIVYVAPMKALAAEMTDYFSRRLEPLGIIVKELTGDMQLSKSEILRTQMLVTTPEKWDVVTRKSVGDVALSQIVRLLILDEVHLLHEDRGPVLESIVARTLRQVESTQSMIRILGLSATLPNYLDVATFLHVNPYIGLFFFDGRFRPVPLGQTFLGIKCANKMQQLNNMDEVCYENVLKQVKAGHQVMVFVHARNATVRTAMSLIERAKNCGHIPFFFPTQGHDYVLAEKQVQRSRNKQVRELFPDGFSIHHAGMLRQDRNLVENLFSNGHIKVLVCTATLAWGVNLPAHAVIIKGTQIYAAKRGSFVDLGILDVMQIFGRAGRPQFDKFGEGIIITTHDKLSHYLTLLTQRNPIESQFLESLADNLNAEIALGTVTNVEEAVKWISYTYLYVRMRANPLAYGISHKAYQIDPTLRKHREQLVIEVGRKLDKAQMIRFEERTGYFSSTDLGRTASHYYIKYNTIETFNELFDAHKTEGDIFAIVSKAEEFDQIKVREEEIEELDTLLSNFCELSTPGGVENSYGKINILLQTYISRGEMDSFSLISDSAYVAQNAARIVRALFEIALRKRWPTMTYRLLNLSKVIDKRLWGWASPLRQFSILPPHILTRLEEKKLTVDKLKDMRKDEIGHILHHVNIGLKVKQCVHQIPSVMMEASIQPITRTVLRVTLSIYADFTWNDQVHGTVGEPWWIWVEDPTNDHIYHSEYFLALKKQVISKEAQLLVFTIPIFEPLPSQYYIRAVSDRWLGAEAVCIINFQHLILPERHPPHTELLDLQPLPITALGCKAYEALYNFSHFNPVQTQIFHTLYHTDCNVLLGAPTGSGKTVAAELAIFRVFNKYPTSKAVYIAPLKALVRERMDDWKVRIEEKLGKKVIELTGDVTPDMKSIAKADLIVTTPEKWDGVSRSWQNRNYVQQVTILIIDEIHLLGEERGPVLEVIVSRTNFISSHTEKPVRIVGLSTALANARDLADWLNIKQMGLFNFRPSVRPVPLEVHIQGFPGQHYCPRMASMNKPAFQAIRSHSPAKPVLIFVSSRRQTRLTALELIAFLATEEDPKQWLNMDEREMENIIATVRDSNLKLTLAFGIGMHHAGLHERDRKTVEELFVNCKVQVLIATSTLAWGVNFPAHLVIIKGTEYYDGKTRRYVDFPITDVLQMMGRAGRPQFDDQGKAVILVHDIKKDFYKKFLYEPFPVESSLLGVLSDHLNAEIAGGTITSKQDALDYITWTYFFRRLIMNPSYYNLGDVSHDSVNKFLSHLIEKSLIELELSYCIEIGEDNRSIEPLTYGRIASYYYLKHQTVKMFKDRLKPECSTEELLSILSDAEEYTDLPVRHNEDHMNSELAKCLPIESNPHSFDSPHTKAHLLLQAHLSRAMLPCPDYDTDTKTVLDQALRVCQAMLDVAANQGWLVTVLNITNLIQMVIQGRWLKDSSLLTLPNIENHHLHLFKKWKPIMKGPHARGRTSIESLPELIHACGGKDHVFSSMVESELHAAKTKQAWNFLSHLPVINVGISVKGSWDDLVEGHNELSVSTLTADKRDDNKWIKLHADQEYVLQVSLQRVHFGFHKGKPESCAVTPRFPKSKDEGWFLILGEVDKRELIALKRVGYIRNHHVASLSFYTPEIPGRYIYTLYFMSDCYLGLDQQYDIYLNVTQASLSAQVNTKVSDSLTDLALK
# UniProt Q9UII2: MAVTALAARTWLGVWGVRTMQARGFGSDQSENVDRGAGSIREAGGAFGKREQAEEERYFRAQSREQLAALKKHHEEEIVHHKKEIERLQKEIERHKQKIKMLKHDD
# UniProt P15848: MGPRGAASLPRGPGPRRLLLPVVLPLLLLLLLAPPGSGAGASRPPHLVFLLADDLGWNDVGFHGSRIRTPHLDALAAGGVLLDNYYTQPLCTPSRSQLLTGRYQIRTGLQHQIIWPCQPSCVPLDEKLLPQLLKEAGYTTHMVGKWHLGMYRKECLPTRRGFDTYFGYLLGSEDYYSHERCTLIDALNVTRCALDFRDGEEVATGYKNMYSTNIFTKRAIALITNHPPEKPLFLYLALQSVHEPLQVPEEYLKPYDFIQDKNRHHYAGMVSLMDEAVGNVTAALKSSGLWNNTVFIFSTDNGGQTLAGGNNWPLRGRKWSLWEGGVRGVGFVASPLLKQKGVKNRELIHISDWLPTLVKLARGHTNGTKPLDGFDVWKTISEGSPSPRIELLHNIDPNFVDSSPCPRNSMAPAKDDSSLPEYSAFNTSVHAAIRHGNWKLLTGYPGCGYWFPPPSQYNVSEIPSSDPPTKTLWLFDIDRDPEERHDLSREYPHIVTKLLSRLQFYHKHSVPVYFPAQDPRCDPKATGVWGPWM
# UniProt Q93084: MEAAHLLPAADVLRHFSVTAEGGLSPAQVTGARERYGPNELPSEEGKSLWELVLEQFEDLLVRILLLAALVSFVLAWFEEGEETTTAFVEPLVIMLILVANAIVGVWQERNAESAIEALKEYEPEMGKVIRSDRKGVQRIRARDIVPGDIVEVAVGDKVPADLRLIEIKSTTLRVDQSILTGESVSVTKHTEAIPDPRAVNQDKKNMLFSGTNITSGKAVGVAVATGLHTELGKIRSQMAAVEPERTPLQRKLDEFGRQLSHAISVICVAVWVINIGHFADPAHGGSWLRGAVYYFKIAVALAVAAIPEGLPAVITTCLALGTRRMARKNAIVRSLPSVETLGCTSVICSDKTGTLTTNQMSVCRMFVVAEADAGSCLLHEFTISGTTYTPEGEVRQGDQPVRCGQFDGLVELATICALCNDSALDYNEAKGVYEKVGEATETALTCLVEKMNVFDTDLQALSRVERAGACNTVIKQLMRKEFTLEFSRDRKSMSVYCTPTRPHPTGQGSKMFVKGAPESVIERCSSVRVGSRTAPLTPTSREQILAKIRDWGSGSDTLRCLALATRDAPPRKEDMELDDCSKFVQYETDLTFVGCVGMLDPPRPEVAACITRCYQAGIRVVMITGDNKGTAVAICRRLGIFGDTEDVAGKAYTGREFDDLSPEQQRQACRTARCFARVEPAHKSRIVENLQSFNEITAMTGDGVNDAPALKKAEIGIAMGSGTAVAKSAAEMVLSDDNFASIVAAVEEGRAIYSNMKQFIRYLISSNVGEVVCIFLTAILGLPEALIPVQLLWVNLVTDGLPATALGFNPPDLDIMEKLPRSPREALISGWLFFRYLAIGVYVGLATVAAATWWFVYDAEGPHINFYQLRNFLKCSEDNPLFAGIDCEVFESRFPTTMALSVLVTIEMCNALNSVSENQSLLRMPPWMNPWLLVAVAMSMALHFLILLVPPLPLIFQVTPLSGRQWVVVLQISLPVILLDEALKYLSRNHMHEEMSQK
# UniProt P56385: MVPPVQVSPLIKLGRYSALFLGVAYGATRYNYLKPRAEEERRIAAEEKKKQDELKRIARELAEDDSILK
# UniProt Q15904, whole entry, looked up: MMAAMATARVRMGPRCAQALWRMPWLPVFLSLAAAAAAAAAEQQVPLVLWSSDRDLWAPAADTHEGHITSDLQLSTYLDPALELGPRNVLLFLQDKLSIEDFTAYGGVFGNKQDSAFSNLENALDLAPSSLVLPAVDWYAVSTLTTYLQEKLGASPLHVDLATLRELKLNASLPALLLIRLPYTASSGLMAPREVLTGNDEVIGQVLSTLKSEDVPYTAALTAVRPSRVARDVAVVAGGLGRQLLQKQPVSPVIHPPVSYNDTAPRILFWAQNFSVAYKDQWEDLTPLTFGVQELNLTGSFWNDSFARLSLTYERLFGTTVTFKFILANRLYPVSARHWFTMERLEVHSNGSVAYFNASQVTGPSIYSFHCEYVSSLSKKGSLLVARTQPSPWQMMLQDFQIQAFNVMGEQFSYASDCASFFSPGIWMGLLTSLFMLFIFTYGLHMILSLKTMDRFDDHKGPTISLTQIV
# UniProt Q92747, whole entry, looked up: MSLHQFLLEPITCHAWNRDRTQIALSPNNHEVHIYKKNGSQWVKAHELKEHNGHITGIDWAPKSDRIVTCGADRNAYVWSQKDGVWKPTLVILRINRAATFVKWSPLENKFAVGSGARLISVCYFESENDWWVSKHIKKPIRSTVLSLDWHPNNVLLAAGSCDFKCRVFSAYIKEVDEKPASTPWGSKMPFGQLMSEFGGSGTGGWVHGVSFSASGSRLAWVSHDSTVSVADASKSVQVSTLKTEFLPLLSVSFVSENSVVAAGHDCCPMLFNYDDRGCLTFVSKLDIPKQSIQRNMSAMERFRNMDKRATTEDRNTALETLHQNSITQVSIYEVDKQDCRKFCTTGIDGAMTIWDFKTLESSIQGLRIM
# UniProt P15289: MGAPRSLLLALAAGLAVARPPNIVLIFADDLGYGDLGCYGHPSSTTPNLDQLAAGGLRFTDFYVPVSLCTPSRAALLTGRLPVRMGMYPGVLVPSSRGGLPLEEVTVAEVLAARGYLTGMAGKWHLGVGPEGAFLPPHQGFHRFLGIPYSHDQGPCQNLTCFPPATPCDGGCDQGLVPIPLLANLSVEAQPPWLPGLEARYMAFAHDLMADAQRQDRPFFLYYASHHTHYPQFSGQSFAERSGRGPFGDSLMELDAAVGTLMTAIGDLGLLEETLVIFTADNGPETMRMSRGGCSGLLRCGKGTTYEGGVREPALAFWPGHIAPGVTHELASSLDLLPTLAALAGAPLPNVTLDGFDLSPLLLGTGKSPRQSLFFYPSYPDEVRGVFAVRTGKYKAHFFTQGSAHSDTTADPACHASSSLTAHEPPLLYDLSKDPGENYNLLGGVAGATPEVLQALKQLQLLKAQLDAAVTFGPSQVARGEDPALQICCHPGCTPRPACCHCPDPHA
# UniProt L0R819, whole entry, looked up: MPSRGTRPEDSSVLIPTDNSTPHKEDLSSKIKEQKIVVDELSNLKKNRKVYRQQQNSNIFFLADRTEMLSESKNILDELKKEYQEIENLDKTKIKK
# UniProt P49407: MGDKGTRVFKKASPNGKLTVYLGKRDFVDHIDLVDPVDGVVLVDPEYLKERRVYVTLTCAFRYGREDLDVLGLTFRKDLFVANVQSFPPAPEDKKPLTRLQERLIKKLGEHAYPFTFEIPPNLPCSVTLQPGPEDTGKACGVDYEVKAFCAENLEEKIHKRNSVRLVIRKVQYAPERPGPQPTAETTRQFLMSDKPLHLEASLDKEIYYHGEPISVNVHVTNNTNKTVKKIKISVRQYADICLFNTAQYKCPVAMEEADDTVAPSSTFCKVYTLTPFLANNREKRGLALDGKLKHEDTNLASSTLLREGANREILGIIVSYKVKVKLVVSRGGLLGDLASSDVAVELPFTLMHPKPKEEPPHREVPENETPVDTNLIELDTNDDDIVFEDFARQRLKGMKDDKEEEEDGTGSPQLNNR
# UniProt Q13510, whole entry, looked up: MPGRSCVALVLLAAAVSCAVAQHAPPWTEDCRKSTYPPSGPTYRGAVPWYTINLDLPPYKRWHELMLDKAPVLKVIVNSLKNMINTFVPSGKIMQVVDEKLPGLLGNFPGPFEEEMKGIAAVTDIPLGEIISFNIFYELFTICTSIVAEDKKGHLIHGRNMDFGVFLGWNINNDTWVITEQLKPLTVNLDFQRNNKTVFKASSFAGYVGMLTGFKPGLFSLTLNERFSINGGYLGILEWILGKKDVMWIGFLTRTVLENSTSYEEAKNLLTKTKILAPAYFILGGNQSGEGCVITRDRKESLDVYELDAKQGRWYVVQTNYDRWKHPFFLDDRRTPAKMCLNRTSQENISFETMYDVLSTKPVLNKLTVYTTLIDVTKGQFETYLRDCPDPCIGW
# UniProt O00244: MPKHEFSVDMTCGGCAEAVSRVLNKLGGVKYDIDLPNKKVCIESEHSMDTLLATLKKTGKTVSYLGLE
# UniProt Q8N2F6: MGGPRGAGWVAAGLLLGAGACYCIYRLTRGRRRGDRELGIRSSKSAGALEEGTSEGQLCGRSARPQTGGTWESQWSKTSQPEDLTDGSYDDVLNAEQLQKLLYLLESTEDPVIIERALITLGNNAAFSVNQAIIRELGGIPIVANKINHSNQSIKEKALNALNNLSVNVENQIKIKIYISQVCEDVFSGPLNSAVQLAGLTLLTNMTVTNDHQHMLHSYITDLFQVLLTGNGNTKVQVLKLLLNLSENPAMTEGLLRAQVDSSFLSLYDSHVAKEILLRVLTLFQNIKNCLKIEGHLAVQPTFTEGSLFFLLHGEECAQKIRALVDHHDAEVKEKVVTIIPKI
# The other results are listed elsewhere or left out.
# How the values were obtained:
# Assay in all cases: log2 fold change, soluble protein after heating vs DMSO (PISA); higher = thermal stabilisation; K562 cells, 10 uM, 30 min; active = over 0.2 and 3.5 SD of the protein, either way, in both replicates (recomputed)
# [1] = compound: C1=CC=C(C=C1)[C@H](COC2=CC3=C(C=C2)NC(=O)N3)NC(=O)C4=CC=CN(C4=O)CC5=CC(=C(C=C5)F)F
# Outline: (§1)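 K562 cells at 2×10^6 cells/mL were exposed to 10 μM compound for 30 min, then aliquots were heated for 3 min across 48°C-58°C, pooled, and extracted in PBS containing 0.5% NP-40 at 4°C. The supernatant after 21,000xg for 90 min was taken as soluble protein and measured by TMTpro 16plex LC-MS/MS with channel sums equalised. Thermal stability is reported relative to control samples, with values from duplicates. Fold changes are given on a log2 scale.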
# [2] = compound: CC1=C(SC2=C1C(=N[C@H](C3=NN=C(N32)C)CC(=O)N)C4=CC=C(C=C4)Cl)C
# Outline: as §1
# [3] = compound: CC1=C2C(=CC=C1)N=C(N(C2=O)C3=CC=CC=C3C)CN4C=NC5=C(N=CN=C54)N
# Outline: as §1
# [4] = compound: Cc1sc2c(c1C)C(c1ccc(Cl)cc1)=N[C@@H](CC(=O)OC(C)(C)C)c1nnc(C)n1-2
# Outline: as §1
# [5] = compound: c1ccc([C@@H]2C[C@H]2NC2CCNCC2)cc1
# Outline: as §1
Target,log2 fold change [1],log2 fold change [2],log2 fold change [3],log2 fold change [4],log2 fold change [5]
ATP5F1B (UniProt P06576),inactive: 0.012,inactive: 0.025,inactive: 0.022,inactive: -0.002,inactive: 0.011
ATIC (UniProt P31939),inactive: -0.023,inactive: 0.039,inactive: 0.073,inactive: -0.041,inactive: -0.012
ARIH1 (UniProt Q9Y4X5),inactive: -0.024,inactive: -0.015,inactive: 0.063,inactive: -0.015,inactive: 0.027
ASCC3 (UniProt Q8N3C0),inactive: 0.104,inactive: 0.023,inactive: 0.084,inactive: 0.318,inactive: -0.003
ATPSCKMT (UniProt Q6P4H8),inactive: 0.051,inactive: 0.048,inactive: -0.004,inactive: -0.046,inactive: 0.029
ATP5IF1 (UniProt Q9UII2),inactive: 0.016,inactive: -0.087,inactive: -0.031,inactive: -0.013,inactive: -0.079
ATPAF1 (UniProt Q5TC12),inactive: 0.034,inactive: -0.038,inactive: -0.016,inactive: -0.011,inactive: 0.057
ARRB2 isoform 4 (UniProt P32121),inactive: 0.031,inactive: -0.01,inactive: 0.062,inactive: 0.004,inactive: 0.014
ARL3 (UniProt P36405),inactive: -0.002,inactive: 0.04,inactive: 0.038,inactive: -0.06,inactive: -0.005
ASRGL1 (UniProt Q7L266),inactive: 0.069,inactive: 0.037,inactive: -0.007,inactive: -0.032,inactive: -0.048
ARSB (UniProt P15848),inactive: -0.028,inactive: 0.068,inactive: 0.025,inactive: -0.043,inactive: 0.027
ATG4B isoform 2 (UniProt Q9Y4P1),inactive: -0.079,inactive: 0.056,inactive: 0.166,inactive: 0.188,inactive: 0.07
ARRDC1 (UniProt Q8N5I2),inactive: 0.005,active: -0.462,inactive: -0.062,inactive: -0.1,inactive: -0.037
ATP2A3 isoform 2 (UniProt Q93084),inactive: -0.01,inactive: 0.035,inactive: 0.036,inactive: -0.002,inactive: 0.01
ASNS (UniProt P08243),inactive: 0.025,inactive: 0.044,inactive: 0.027,inactive: -0.008,inactive: -0.019
ATP13A3 (UniProt Q9H7F0),inactive: -0.038,inactive: 0.008,inactive: 0.016,inactive: 0.018,inactive: -0.101
ASPM (UniProt Q8IZT6),inactive: -0.064,inactive: -0.003,inactive: 0.073,inactive: 0.032,inactive: 0.042
ASPSCR1 isoform 2 (UniProt Q9BZE9),inactive: -0.041,inactive: -0.019,inactive: 0.027,inactive: -0.027,inactive: 0.035
ARL2 (UniProt P36404),inactive: -0.037,inactive: 0.072,inactive: 0.015,inactive: -0.062,inactive: 0.012
ATP5ME (UniProt P56385),inactive: 0.028,inactive: 0.117,inactive: 0.007,inactive: -0.072,inactive: 0.014
ATP1A4 (UniProt Q13733),inactive: -0.084,inactive: -0.142,inactive: 0.035,inactive: 0.036,inactive: 0.056
ATP5PF isoform 2 (UniProt P18859),inactive: 0.033,inactive: 0.08,inactive: -0.001,inactive: 0.141,inactive: -0.055
ATP6AP1 (UniProt Q15904),inactive: 0.014,inactive: -0.069,inactive: -0.009,inactive: -0.055,inactive: -0.022
ARPC1A (UniProt Q92747),inactive: -0.044,inactive: 0.049,inactive: 0.041,inactive: 0.03,inactive: 0.044
ARSA (UniProt P15289),inactive: 0.119,inactive: 0.051,inactive: -0.009,inactive: 0.015,inactive: -0.048
ASDURF (UniProt L0R819),inactive: 0.061,inactive: -0.025,inactive: -0.022,inactive: 0.063,inactive: 0.001

Target,log2 fold change [1],log2 fold change [2],log2 fold change [3],log2 fold change [4],log2 fold change [5]
ASH2L (UniProt Q9UBL3),inactive: 0.016,inactive: -0.013,inactive: 0.081,inactive: -0.031,inactive: 0.005
ARRB1 isoform 2 (UniProt P49407),inactive: 0.034,inactive: 0.031,inactive: 0.068,inactive: 0.028,inactive: 0.096
ATP11C (UniProt Q8NB49),inactive: -0.012,inactive: 0.073,inactive: 0.05,inactive: -0.043,inactive: 0.026
ATP6V0A2 (UniProt Q9Y487),inactive: 0.018,inactive: -0.044,inactive: -0.007,inactive: -0.059,inactive: -0.014
ASAH1 isoform 2 (UniProt Q13510),inactive: 0.023,inactive: 0.019,inactive: -0.1,inactive: -0.014,inactive: 0.01
ATP1B1 (UniProt P05026),inactive: -0.083,inactive: 0.018,inactive: -0.044,inactive: 0.044,inactive: 0.091
ATP2A2 (UniProt P16615),inactive: -0.029,inactive: 0.068,inactive: 0.042,inactive: -0.026,inactive: -0.022
ATP13A1 (UniProt Q9HD20),inactive: -0.023,inactive: 0.056,inactive: 0.036,inactive: -0.058,inactive: 0.033
ARNT (UniProt P27540),inactive: -0.157,inactive: 0.058,inactive: -0.106,inactive: 0.024,inactive: 0.017
ATG5 (UniProt Q9H1Y0),inactive: -0.013,inactive: 0.045,inactive: 0.043,inactive: 0.01,inactive: 0.01
ASMTL (UniProt O95671),inactive: -0.29,inactive: -0.048,inactive: 0.198,inactive: 0.109,inactive: -0.016
ARPC5L (UniProt Q9BPX5),inactive: 0.017,inactive: 0.031,inactive: -0.037,inactive: 0.004,inactive: 0.022
ARPC5 (UniProt O15511),inactive: 0.042,inactive: 0.003,inactive: 0.015,inactive: -0.014,inactive: 0.064
ARPC2 (UniProt O15144),inactive: 0.02,inactive: 0.019,inactive: 0.036,inactive: -0.033,inactive: 0.04
ATP9B (UniProt O43861),inactive: -0.092,inactive: -0.001,inactive: 0.055,inactive: -0.048,inactive: 0.071
ATP6V1H (UniProt Q9UI12),inactive: -0.003,inactive: 0.065,inactive: 0.029,inactive: -0.019,inactive: -0.116
ATG101 (UniProt Q9BSB4),inactive: 0.04,inactive: 0.052,inactive: -0.009,inactive: -0.071,inactive: 0.089
ARRB1 (UniProt P49407),inactive: 0.008,inactive: 0.034,inactive: 0.003,inactive: -0.047,inactive: -0.036
ATP11A (UniProt P98196),inactive: 0.001,inactive: -0.003,inactive: 0.085,inactive: -0.034,inactive: 0.062
ATP5F1C (UniProt P36542),inactive: 0.025,inactive: 0.008,inactive: 0.021,inactive: 0.006,inactive: 0.007
ATP6V1F isoform 2 (UniProt Q16864),inactive: 0.015,inactive: -0.144,inactive: -0.138,inactive: -0.126,inactive: 0.02
ATOX1 (UniProt O00244),inactive: 0.033,inactive: 0.124,inactive: 0.101,inactive: -0.153,inactive: 0.008
ARMC10 (UniProt Q8N2F6),inactive: 0.035,inactive: -0.017,inactive: -0.006,inactive: 0.012,inactive: -0.009
ATF1 (UniProt P18846),inactive: -0.054,inactive: 0.11,inactive: -0.001,inactive: -0.014,active: -0.391
ARPC4 isoform 3 (UniProt P59998),inactive: 0.011,inactive: 0.036,inactive: 0.023,inactive: -0.05,inactive: 0.028
ASNA1 (UniProt O43681),inactive: 0.043,inactive: 0.005,inactive: 0.003,inactive: 0,inactive: 0.003

# Reformatted with tabs: entries from further up
Target	log2 fold change [1]	log2 fold change [2]	log2 fold change [3]	log2 fold change [4]	log2 fold change [5]
ATIC (UniProt P31939)	inactive: -0.023	inactive: 0.039	inactive: 0.073	inactive: -0.041	inactive: -0.012
ATP1B1 (UniProt P05026)	inactive: -0.083	inactive: 0.018	inactive: -0.044	inactive: 0.044	inactive: 0.091
